# According to PubChem BioAssay AID182 (DTP/NCI, 2004):
# The list shows only some results of the screen, not a fair sample: it gathers tests that were run many times, whatever their T/C, doses with no T/C, and many T/C values between a quarter and a half above the control. Further doses and runs are listed elsewhere. T/C: endpoint of the treated group in % of that of the vehicle group. Some entries give survivors of the animals treated and no T/C: the source holds a T/C of zero for them, seemingly a mark for toxic or unscored doses. Some doses without a T/C left all or most animals alive at the check, yet need not have been tolerated: the source hardly ever lists a survival T/C far under the control, and the zero likely stands for such cases as well. Counts of survivors are from the toxicity check (mostly the fifth day) where no day follows; animals may have died later. Schedules are NCI's codes, taken here to give the interval after Q, in days (D) or hours (H), and the number of doses after X. Some molecules as drawn cover several salts, stereoisomers or complexes of the source; a dose is that of the sample tested. Some entries hold several experiments; the values are given in rising order. For survival time, this PubChem deposit counts one and a half times the control or more as active, and values a quarter to a half above the control carry no call in these data; other NCI protocols may use other cut-offs. Some T/C values are followed by the survivors on the day toxicity was checked, most often the fifth; where none is given, no animal had died by that day.
# Test system: BDF1 mice, P388/ADR leukemia ip, median survival T/C
# Assay: NCI In Vivo Anticancer Drug Screen. Data for tumor model P388 Leukemia resistant to Adriamycin; NSC 123127, Developed at Scr 06 and 41 (intraperitoneal) in B6D2F1 (BDF1) mice
# Details: T/C endpoint: median survival time, higher T/C = longer survival
# Description: The antitumor activity of compounds was measured in mice bearing transplantable tumors. Survival or tumor size were measured and the results are expressed as the measurement made in the treated group (T) divided by the measurement made in the vehicle treated control group (C). The tumor model used in this assay is P388 Leukemia resistant to Adriamycin; NSC 123127, Developed at Scr 06 and 41 (intraperitoneal) in B6D2F1 (BDF1) mice
# [1] = dose: 8.0 mg/kg/injection, schedule: Q04DX003 (ip), vehicle: water
smiles,measurement,setting,value
COc1cc(NS(C)(=O)=O)ccc1Nc1c2ccccc2nc2ccccc12,T/C,"dose: 6.0 mg/kg/injection, schedule: Q04DX003 (ip), vehicle: other",134 % of control
same,T/C,"dose: 10.0 mg/kg/injection, schedule: Q04DX003 (ip), vehicle: other",129 % of control
same,survivor count,"dose: 15.0 mg/kg/injection, schedule: Q04DX003 (ip), vehicle: clinical formulation",7 of 8
same,survivor count,"dose: 16.7 mg/kg/injection, schedule: Q04DX003 (ip), vehicle: other",7 of 8
same,survivor count,"dose: 25.0 mg/kg/injection, schedule: Q04DX003 (ip), vehicle: clinical formulation",4 of 8
O=C1c2ccccc2C(=O)c2c(NCCNCCO)ccc(NCCNCCO)c21,survivor count,"dose: 60.0 mg/kg/injection, schedule: Q04DX003 (ip), vehicle: saline + alcohol",8 of 8
COc1cccc2c1C(=O)c1c(O)c3c(c(O)c1C2=O)C[C@@](O)(C(=O)CO)C[C@@H]3OC1CC([N+](C)(C)C)C(O)C(C)O1 (stereo partly drawn),survivor count,"dose: 24.0 mg/kg/injection, schedule: Q04DX003 (ip), vehicle: water",6 of 8
same,survivor count,"dose: 40.0 mg/kg/injection, schedule: Q04DX003 (ip), vehicle: water",1 of 8
O=C(Nc1ccc(C2=NCCCN2)cc1)c1ccc(C(=O)Nc2ccc(C3=NCCCN3)cc2)cc1,T/C,"dose: 18.0 mg/kg/injection, schedule: Q04DX003 (ip), vehicle: other",131 % of control [7 of 8 alive]
same,survivor count,"dose: 50.0 mg/kg/injection, schedule: Q04DX003 (ip), vehicle: other",6 of 8
CC1CC(C)(O)CC(C(O)CC2CC(=O)NC(=O)C2)C1=O (stereo not drawn),survivor count,"dose: 1.2 mg/kg/injection, schedule: Q04DX003 (ip), vehicle: saline",8 of 8
same,T/C,"dose: 1.3 mg/kg/injection, schedule: Q04DX003 (ip), vehicle: saline",125 % of control
same,survivor count,"dose: 2.0 mg/kg/injection, schedule: Q04DX003 (ip), vehicle: saline",7 of 8
same,survivor count,"dose: 3.33 mg/kg/injection, schedule: Q04DX003 (ip), vehicle: saline",3 of 8
same,survivor count,"dose: 3.6 mg/kg/injection, schedule: Q04DX003 (ip), vehicle: saline",8 of 8
same,survivor count,"dose: 800.0 micrograms/kg/injection, schedule: Q01DX009 (ip), vehicle: saline",5 of 8
COc1cc([C@@H]2c3cc4c(cc3[C@@H](OC3OC5COC(C)OC5C(O)C3O)[C@H]3COC(=O)[C@H]23)OCO4)cc(OC)c1O (stereo partly drawn),survivor count,"dose: 83.3 mg/kg/injection, schedule: Q04DX003 (ip), vehicle: Klucel (hydroxypropylcellulose) (HPC)",8 of 8
COC1C(O)C(C)OC(OC2C(Oc3cccc4c(O)c5c(=O)oc6ccc(C)c7c(=O)oc(c34)c5c67)OC(C)C(O)C2O)C1O (stereo not drawn),survivor count,"dose: 72.0 mg/kg/injection, schedule: Q04DX003 (ip), vehicle: Klucel (hydroxypropylcellulose) (HPC)",8 of 8
same,survivor count,"dose: 120.0 mg/kg/injection, schedule: Q04DX003 (ip), vehicle: Klucel (hydroxypropylcellulose) (HPC)",8 of 8
same,survivor count,"dose: 200.0 mg/kg/injection, schedule: Q04DX003 (ip), vehicle: Klucel (hydroxypropylcellulose) (HPC)",5 of 8
NC(C/[N+]([O-])=N/O)C(=O)O (stereo not drawn),T/C,"dose: 173.0 mg/kg/injection, schedule: Q04DX003 (ip), vehicle: sodium bicarbonate",139 % of control
same,survivor count,"dose: 800.0 mg/kg/injection, schedule: Q04DX003 (ip), vehicle: sodium bicarbonate",8 of 8
CC[C@@]1(O)C[C@H](OC2CC(N(C)C)C(OC3CC(O)C(OC4CCC(=O)C(C)O4)C(C)O3)C(C)O2)c2c(cc3c(c2O)C(=O)c2c(O)ccc(O)c2C3=O)[C@H]1C(=O)OC (stereo partly drawn),T/C,"dose: 1.73 mg/kg/injection, schedule: Q04DX003 (ip), vehicle: other",130 % of control
same,T/C,"dose: 1.8 mg/kg/injection, schedule: Q01DX009 (ip), vehicle: water",139 % of control
same,T/C,"dose: 2.88 mg/kg/injection, schedule: Q04DX003 (ip), vehicle: other",138 % of control
same,T/C,"dose: 2.88 mg/kg/injection, schedule: Q04DX003 (ip), vehicle: water",139 and 141 % of control
same,T/C,"dose: 4.8 mg/kg/injection, schedule: Q04DX003 (ip), vehicle: water",141 and 147 % of control
same,survivor count,"dose: 8.0 mg/kg/injection, schedule: Q04DX003 (ip), vehicle: other",8 of 8
same,survivor count,[1],8 of 8
same,survivor count,"dose: 10.0 mg/kg/injection, schedule: Q04DX003 (ip), vehicle: water",8 of 8
same,survivor count,"dose: 13.33 mg/kg/injection, schedule: Q04DX003 (ip), vehicle: water",8 of 8
CO[C@H](C(=O)[C@@H](O)[C@@H](C)O)[C@@H]1Cc2cc3cc(OC4CC(OC5CC(O)C(O)C(C)O5)C(O)C(C)O4)c(C)c(O)c3c(O)c2C(=O)[C@H]1OC1CC(OC2CC(OC3CC(C)(O)C(O)C(C)O3)C(O)C(C)O2)C(O)C(C)O1 (stereo partly drawn),survivor count,"dose: 0.9 mg/kg/injection, schedule: Q01DX005 (ip), vehicle: water",8 of 8
same,survivor count,"dose: 1.08 mg/kg/injection, schedule: Q04DX003 (ip), vehicle: water",7 of 8
same,survivor count,"dose: 1.5 mg/kg/injection, schedule: Q01DX005 (ip), vehicle: water",2 of 8
same,survivor count,"dose: 1.8 mg/kg/injection, schedule: Q04DX003 (ip), vehicle: water",5 of 8
same,survivor count,"dose: 3.0 mg/kg/injection, schedule: Q04DX003 (ip), vehicle: water",2 of 7
CCC1(O)CC(OC2CC(N(C)C)C(OC3CC(O)C(OC4CCC(=O)C(C)O4)C(C)O3)C(C)O2)c2c(cc3c(c2O)C(=O)c2c(O)ccc(O)c2C3=O)C1C(=O)OC (stereo not drawn),survivor count,[1],8 of 8
COc1cccc2c1C(=O)c1c(O)c3c(c(O)c1C2=O)CC(O)(C(=O)CO)CC3OC1CC(N)C(O)C(C)O1 (stereo not drawn),survivor count,"dose: 2.88 mg/kg/injection, schedule: Q01DX004 (ip), vehicle: water",8 of 8
same,survivor count,"dose: 4.8 mg/kg/injection, schedule: Q01DX004 (ip), vehicle: water",8 of 8
same,survivor count,"dose: 8.0 mg/kg/injection, schedule: Q01DX004 (ip), vehicle: water",8 of 8
CC[C@H]1CN2CCc3cc(OC)c(OC)cc3[C@@H]2C[C@@H]1C[C@@H]1c2cc(OC)c(OC)cc2CCN1CCN(CCCl)CCCl,T/C,"dose: 12.0 mg/kg/injection, schedule: Q04DX003 (ip), vehicle: saline with Tween-80",129 % of control
same,T/C,"dose: 20.0 mg/kg/injection, schedule: Q04DX003 (ip), vehicle: saline with Tween-80",139 % of control
COC(=O)[C@@]12OC[C@]34[C@H]([C@@H](O)[C@@H]1O)[C@@]1(C)CC(=O)C(O)=C(C)[C@@H]1C[C@H]3OC(=O)[C@H](OC(=O)/C=C(\C)C(C)C)[C@@H]24,survivor count,"dose: 3.0 mg/kg/injection, schedule: Q04DX003 (ip), vehicle: saline + alcohol",1 of 8 and 2 of 8
same,survivor count,"dose: 5.0 mg/kg/injection, schedule: Q04DX003 (ip), vehicle: saline + alcohol",0 of 8
same,T/C,"dose: 389.0 micrograms/kg/injection, schedule: Q01DX004 (ip), vehicle: saline + alcohol",130 % of control
same,T/C,"dose: 432.0 micrograms/kg/injection, schedule: Q01DX009 (ip), vehicle: saline + alcohol",130 % of control
same,T/C,"dose: 648.0 micrograms/kg/injection, schedule: Q01DX004 (ip), vehicle: saline + alcohol",141 % of control [6 of 8 alive]
same,T/C,"dose: 720.0 micrograms/kg/injection, schedule: Q01DX009 (ip), vehicle: saline + alcohol",136 % of control
same,survivor count,"dose: 1080.0 micrograms/kg/injection, schedule: Q01DX004 (ip), vehicle: saline + alcohol",0 of 8
same,T/C,"dose: 1200.0 micrograms/kg/injection, schedule: Q01DX009 (ip), vehicle: saline + alcohol",146 % of control
same,survivor count,"dose: 1800.0 micrograms/kg/injection, schedule: Q01DX004 (ip), vehicle: saline + alcohol",1 of 8
same,survivor count,"dose: 2000.0 micrograms/kg/injection, schedule: Q01DX009 (ip), vehicle: saline + alcohol",4 of 8
CC(CN1CC(=O)NC(=O)C1)N1CC(=O)NC(=O)C1 (stereo not drawn),T/C,"dose: 240.0 mg/kg/injection, schedule: Q04DX003 (ip), vehicle: Klucel (hydroxypropylcellulose) (HPC)",135 % of control
same,survivor count,"dose: 360.0 mg/kg/injection, schedule: Q04DX003 (ip), vehicle: Klucel (hydroxypropylcellulose) (HPC)",8 of 8
same,T/C,"dose: 400.0 mg/kg/injection, schedule: Q04DX003 (ip), vehicle: Klucel (hydroxypropylcellulose) (HPC)",130 % of control [7 of 8 alive]
same,survivor count,"dose: 500.0 mg/kg/injection, schedule: Q04DX003 (ip), vehicle: Klucel (hydroxypropylcellulose) (HPC)",7 of 8
same,survivor count,"dose: 600.0 mg/kg/injection, schedule: Q04DX003 (ip), vehicle: Klucel (hydroxypropylcellulose) (HPC)",8 of 8
same,survivor count,"dose: 1000.0 mg/kg/injection, schedule: Q04DX003 (ip), vehicle: Klucel (hydroxypropylcellulose) (HPC)",6 of 8
